Test results published in patent US20090062309A1, “Therapeutic compositions for the treatment of cardiovascular diseases and methods for use therefor” (priority 2007, published 2009).

Test system: subjects with CHD having decreased RBC K content
Assay type: in vivo, human
Details: 1st month
Method: Subjects were evaluated by clinical angina (CCS angina Class II-IV), dyspnea, or arrhythmia.
Exclusion Criteria: Evidence of acute coronary syndrome, AMI, stroke or cardiac arrhythmias; NYHA class III-IV of heart failure, hyperkalemia. Informed consent was obtained in all. Other non CHD causes of chest pain, dyspnea, and arrhythmia had been ruled out.
In addition to that, a single dose of calcium gluconolactate (1 g/daily) was given to all subjects having plasma ionized ICa^2+ ≦1.1 mmol/L, while other Laboratory correction and drug assessment were conducted across the first 3-month period (Table 1) Safety control (ECG, Ion Transport Laboratory, BIA, Non-Invasive Hemodynamic) was obtained at 1, 3 and 6 months and 1 year. Clinical control was obtained weekly in the first month or as needed for physician or patient symptoms; thereafter a 3, 6 and 12 months.
The subjects were taken off any drug that might impair RBC transport, such as digitalis, β-blockers, or NSAID's, in subjects with RBC K^+ ≦90.2 mmol/L cell. Oral calcium gluconolactate (1 g/daily) was administered in all subjects with plasma ionized calcium ≦1.1 mmol/L. Subjects had correction of other plasma electrolyte abnormalities. The subjects were taken off any drug that may affect ventricular repolarization, as digoxin, calcium channel blockers (CCB), diuretics, β-blockers, or the like. […] Anti-aggregants or aspirin in subjects free of angina were discontinued after the 3rd month of treatment. […]

Cl.NC(N)=NC(=O)c1nc(Cl)c(N)nc1N.O.O [Amiloride, 3,5-diamino-6-chloro-N-(diaminomethylene) pyrazinecarboxamide monohydrochloride, dihydrate]
BIA Total Body Water and FFM (Fat-Free-Mass): significantly decreased | plasma ICa2+: ≥ 1.05 mmol/L | urinary Na+/K+ rate excretion: decreased
